Publication PMC8384837
Where a chain is given by its changes, count along the chain named. This is one part of the list. For part of these data: At the low end of the ranking the order means little.

How the values were obtained:
Conditions in all cases: yeast three-hybrid, YBZ-1, SC-Leu-His + 0.5 mM 3-AT, 4 days
[1] = target: T1, PUM1 PUF domain R2-LLL N899L + Y900L + Q903L (UniProt Q14671)
T1 sequence: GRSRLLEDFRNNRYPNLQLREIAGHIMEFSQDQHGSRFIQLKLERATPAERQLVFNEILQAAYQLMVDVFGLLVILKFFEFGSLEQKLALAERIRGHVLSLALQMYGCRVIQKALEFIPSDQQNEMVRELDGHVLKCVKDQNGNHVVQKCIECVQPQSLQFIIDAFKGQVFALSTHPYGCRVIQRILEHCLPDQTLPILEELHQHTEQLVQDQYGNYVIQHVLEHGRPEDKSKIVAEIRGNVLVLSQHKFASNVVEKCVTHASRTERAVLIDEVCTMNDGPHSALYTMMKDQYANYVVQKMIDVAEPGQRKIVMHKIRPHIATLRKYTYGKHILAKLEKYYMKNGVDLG

[2] = target: T2, PUM1 PUF domain R2-LLY N899L + Y900L + Q903Y (UniProt Q14671)
T2 sequence: T1 sequence with L76Y

[3] = target: T3, PUM1 PUF domain R2-LWA N899L + Y900W + Q903A (Homo sapiens) (UniProt Q14671)
T3 sequence: T1 sequence with L73W, L76A

[4] = target: T4, PUM1 PUF domain R2-LWD N899L + Y900W + Q903D (UniProt Q14671)
T4 sequence: T1 sequence with L73W, L76D

[5] = target: T5, PUM1 PUF domain R2-LWE N899L + Y900W + Q903E (UniProt Q14671)
T5 sequence: T1 sequence with L73W, L76E

[6] = target: T6, PUM1 PUF domain R2-LWG N899L + Y900W + Q903G (UniProt Q14671)
T6 sequence: T1 sequence with L73W, L76G

[7] = target: T7, PUM1 PUF domain R2-LWH N899L + Y900W + Q903H (UniProt Q14671)
T7 sequence: T1 sequence with L73W, L76H

[8] = target: T8, PUM1 PUF domain R2-LWL N899L + Y900W + Q903L (UniProt Q14671)
T8 sequence: T1 sequence with L73W

[9] = target: T9, PUM1 PUF domain R2-LWM N899L + Y900W + Q903M (UniProt Q14671)
T9 sequence: T1 sequence with L73W, L76M

[10] = target: T10, PUM1 PUF domain R2-LWQ N899L + Y900W (UniProt Q14671)
T10 sequence: T1 sequence with L73W, L76Q

[11] = target: T11, PUM1 PUF domain R2-LWR N899L + Y900W + Q903R (Homo sapiens) (UniProt Q14671)
T11 sequence: T1 sequence with L73W, L76R

[12] = target: T12, PUM1 PUF domain R2-LWS N899L + Y900W + Q903S (Homo sapiens) (UniProt Q14671)
T12 sequence: T1 sequence with L73W, L76S

[13] = target: T13, PUM1 PUF domain R2-LWV N899L + Y900W + Q903V (UniProt Q14671)
T13 sequence: T1 sequence with L73W, L76V

[14] = target: T14, PUM1 PUF domain R2-LWY N899L + Y900W + Q903Y (UniProt Q14671)
T14 sequence: T1 sequence with L73W, L76Y

[15] = target: T15, PUM1 PUF domain R2-LYL N899L + Q903L (UniProt Q14671)
T15 sequence: T1 sequence with L73Y

[16] = target: T16, PUM1 PUF domain R2-MVW N899M + Y900V + Q903W (UniProt Q14671)
T16 sequence: T1 sequence with L72M, L73V, L76W

[17] = target: T17, PUM1 PUF domain R2-NRW Y900R + Q903W (UniProt Q14671)
T17 sequence: T1 sequence with L72N, L73R, L76W

[18] = target: T18, PUM1 PUF domain R2-NWP Y900W + Q903P (Homo sapiens) (UniProt Q14671)
T18 sequence: T1 sequence with L72N, L73W, L76P

[19] = target: T19, PUM1 PUF domain R2-PVM N899P + Y900V + Q903M (UniProt Q14671)
T19 sequence: T1 sequence with L72P, L73V, L76M

[20] = target: T20, PUM1 PUF domain R2-PWE N899P + Y900W + Q903E (UniProt Q14671)
T20 sequence: T1 sequence with L72P, L73W, L76E

[21] = target: T21, PUM1 PUF domain R2-RKA N899R + Y900K + Q903A (UniProt Q14671)
T21 sequence: T1 sequence with L72R, L73K, L76A

[22] = target: T22, PUM1 PUF domain R2-RKC N899R + Y900K + Q903C (UniProt Q14671)
T22 sequence: T1 sequence with L72R, L73K, L76C

[23] = target: T23, PUM1 PUF domain R2-RKG N899R + Y900K + Q903G (UniProt Q14671)
T23 sequence: T1 sequence with L72R, L73K, L76G

[24] = target: T24, PUM1 PUF domain R2-RKV N899R + Y900K + Q903V (UniProt Q14671)
T24 sequence: T1 sequence with L72R, L73K, L76V

[25] = target: T25, PUM1 PUF domain R2-RKW N899R + Y900K + Q903W (UniProt Q14671)
T25 sequence: T1 sequence with L72R, L73K, L76W

[26] = target: T26, PUM1 PUF domain R2-RRA N899R + Y900R + Q903A (UniProt Q14671)
T26 sequence: T1 sequence with L72R, L73R, L76A

[27] = target: T27, PUM1 PUF domain R2-RRC N899R + Y900R + Q903C (UniProt Q14671)
T27 sequence: T1 sequence with L72R, L73R, L76C

[28] = target: T28, PUM1 PUF domain R2-RRG N899R + Y900R + Q903G (Homo sapiens) (UniProt Q14671)
T28 sequence: T1 sequence with L72R, L73R, L76G

[29] = target: T29, PUM1 PUF domain R2-RRH N899R + Y900R + Q903H (UniProt Q14671)
T29 sequence: T1 sequence with L72R, L73R, L76H

[30] = target: T30, PUM1 PUF domain R2-RRM N899R + Y900R + Q903M (UniProt Q14671)
T30 sequence: T1 sequence with L72R, L73R, L76M

[31] = target: T31, PUM1 PUF domain R2-RRQ N899R + Y900R (UniProt Q14671)
T31 sequence: T1 sequence with L72R, L73R, L76Q

[32] = target: T32, PUM1 PUF domain R2-RRS N899R + Y900R + Q903S (Homo sapiens) (UniProt Q14671)
T32 sequence: T1 sequence with L72R, L73R, L76S

[33] = target: T33, PUM1 PUF domain R2-RRT N899R + Y900R + Q903T (UniProt Q14671)
T33 sequence: T1 sequence with L72R, L73R, L76T

[34] = target: T34, PUM1 PUF domain R2-RRV N899R + Y900R + Q903V (Homo sapiens) (UniProt Q14671)
T34 sequence: T1 sequence with L72R, L73R, L76V

[35] = target: T35, PUM1 PUF domain R2-RTS N899R + Y900T + Q903S (UniProt Q14671)
T35 sequence: T1 sequence with L72R, L73T, L76S

[36] = target: T36, PUM1 PUF domain R2-RVN N899R + Y900V + Q903N (UniProt Q14671)
T36 sequence: T1 sequence with L72R, L73V, L76N

[37] = target: T37, PUM1 PUF domain R2-RVT N899R + Y900V + Q903T (UniProt Q14671)
T37 sequence: T1 sequence with L72R, L73V, L76T

[38] = target: T38, PUM1 PUF domain R2-SIP N899S + Y900I + Q903P (UniProt Q14671)
T38 sequence: T1 sequence with L72S, L73I, L76P

[39] = target: T39, PUM1 PUF domain R2-TFG N899T + Y900F + Q903G (UniProt Q14671)
T39 sequence: T1 sequence with L72T, L73F, L76G

[40] = target: T40, PUM1 PUF domain R2-VFR N899V + Y900F + Q903R (Homo sapiens) (UniProt Q14671)
T40 sequence: T1 sequence with L72V, L73F, L76R

[41] = target: T41, PUM1 PUF domain R2-VFV N899V + Y900F + Q903V (UniProt Q14671)
T41 sequence: T1 sequence with L72V, L73F, L76V

[42] = target: T42, PUM1 PUF domain R2-VWP N899V + Y900W + Q903P (Homo sapiens) (UniProt Q14671)
T42 sequence: T1 sequence with L72V, L73W, L76P

[43] = target: T43, PUM1 PUF domain R2-VWW N899V + Y900W + Q903W (UniProt Q14671)
T43 sequence: T1 sequence with L72V, L73W, L76W

[44] = target: T44, PUM1 PUF domain R2-VYL N899V + Q903L (UniProt Q14671)
T44 sequence: T1 sequence with L72V, L73Y

[45] = target: T45, PUM1 PUF domain R2-VYP N899V + Q903P (UniProt Q14671)
T45 sequence: T1 sequence with L72V, L73Y, L76P

Work on “GGCUAGAACUAGUGGAUCCCCCGGCGCCCGGCGGCUCGAGCCCGGGUAAGUGUAAACAGUCUGCAUGCCGCCGGGCGCCAUGCCUGCAGGUCGACUCUAGAAAACAUG” yielded a binding signal (log2 enrichment (interaction score)) [1] of under -10.9, a binding signal (log2 enrichment (interaction score)) [2] of under -8.4 and a binding signal (log2 enrichment (interaction score)) [3] of -1.61. The binding signal (log2 enrichment (interaction score)) [4] was under -8.76, the binding signal (log2 enrichment (interaction score)) [5] was under -8.93 and the binding signal (log2 enrichment (interaction score)) [6] was under -9.63. The binding signal (log2 enrichment (interaction score)) [7] was under -5.9, the binding signal (log2 enrichment (interaction score)) [8] was under -6.85 and the binding signal (log2 enrichment (interaction score)) [9] was under -6.15. For the same sequence, the binding signal (log2 enrichment (interaction score)) [10] was under -6.57, the binding signal (log2 enrichment (interaction score)) [11] was -1.73 and the binding signal (log2 enrichment (interaction score)) [12] was -0.29. It also gave a binding signal (log2 enrichment (interaction score)) [13] of under -8.16, a binding signal (log2 enrichment (interaction score)) [14] of under -8.27 and a binding signal (log2 enrichment (interaction score)) [15] of under -7.83. The binding signal (log2 enrichment (interaction score)) [16] was under -6.57, the binding signal (log2 enrichment (interaction score)) [17] was under -5.62 and the binding signal (log2 enrichment (interaction score)) [18] was -1.36. The binding signal (log2 enrichment (interaction score)) [19] was under -6.75, the binding signal (log2 enrichment (interaction score)) [20] was under -8.69 and the binding signal (log2 enrichment (interaction score)) [21] was under -7.83. For the same sequence, the binding signal (log2 enrichment (interaction score)) [22] was under -6.06, the binding signal (log2 enrichment (interaction score)) [23] was under -6.15 and the binding signal (log2 enrichment (interaction score)) [24] was under -7.2. The binding signal (log2 enrichment (interaction score)) [25] was under -7.54, the binding signal (log2 enrichment (interaction score)) [26] was under -9.49 and the binding signal (log2 enrichment (interaction score)) [27] was under -8.44. It also gave a binding signal (log2 enrichment (interaction score)) [28] of -3.57, a binding signal (log2 enrichment (interaction score)) [29] of under -7.48 and a binding signal (log2 enrichment (interaction score)) [30] of under -7. The binding signal (log2 enrichment (interaction score)) [31] was under -7.1, the binding signal (log2 enrichment (interaction score)) [32] was -3.02 and the binding signal (log2 enrichment (interaction score)) [33] was under -8.11. The binding signal (log2 enrichment (interaction score)) [34] was -7.19, the binding signal (log2 enrichment (interaction score)) [35] was under -8.7 and the binding signal (log2 enrichment (interaction score)) [36] was under -7.51. For the same sequence, the binding signal (log2 enrichment (interaction score)) [37] was under -7.6, the binding signal (log2 enrichment (interaction score)) [38] was under -6.09 and the binding signal (log2 enrichment (interaction score)) [39] was under -6.44. For the same sequence, the binding signal (log2 enrichment (interaction score)) [40] was -1.45, the binding signal (log2 enrichment (interaction score)) [41] was under -6.31 and the binding signal (log2 enrichment (interaction score)) [42] was under -6.19. The binding signal (log2 enrichment (interaction score)) [43] was under -7.23, the binding signal (log2 enrichment (interaction score)) [44] was under -6.78 and the binding signal (log2 enrichment (interaction score)) [45] was under -7.75.
